{"sequences": {"note": "The chains behind the UniProt entries cited, without tags or fusion partners. Where a name states a change or a piece, a line headed by the entry shows the natural chain unless it says otherwise.", "UniProt Q8WZA2": "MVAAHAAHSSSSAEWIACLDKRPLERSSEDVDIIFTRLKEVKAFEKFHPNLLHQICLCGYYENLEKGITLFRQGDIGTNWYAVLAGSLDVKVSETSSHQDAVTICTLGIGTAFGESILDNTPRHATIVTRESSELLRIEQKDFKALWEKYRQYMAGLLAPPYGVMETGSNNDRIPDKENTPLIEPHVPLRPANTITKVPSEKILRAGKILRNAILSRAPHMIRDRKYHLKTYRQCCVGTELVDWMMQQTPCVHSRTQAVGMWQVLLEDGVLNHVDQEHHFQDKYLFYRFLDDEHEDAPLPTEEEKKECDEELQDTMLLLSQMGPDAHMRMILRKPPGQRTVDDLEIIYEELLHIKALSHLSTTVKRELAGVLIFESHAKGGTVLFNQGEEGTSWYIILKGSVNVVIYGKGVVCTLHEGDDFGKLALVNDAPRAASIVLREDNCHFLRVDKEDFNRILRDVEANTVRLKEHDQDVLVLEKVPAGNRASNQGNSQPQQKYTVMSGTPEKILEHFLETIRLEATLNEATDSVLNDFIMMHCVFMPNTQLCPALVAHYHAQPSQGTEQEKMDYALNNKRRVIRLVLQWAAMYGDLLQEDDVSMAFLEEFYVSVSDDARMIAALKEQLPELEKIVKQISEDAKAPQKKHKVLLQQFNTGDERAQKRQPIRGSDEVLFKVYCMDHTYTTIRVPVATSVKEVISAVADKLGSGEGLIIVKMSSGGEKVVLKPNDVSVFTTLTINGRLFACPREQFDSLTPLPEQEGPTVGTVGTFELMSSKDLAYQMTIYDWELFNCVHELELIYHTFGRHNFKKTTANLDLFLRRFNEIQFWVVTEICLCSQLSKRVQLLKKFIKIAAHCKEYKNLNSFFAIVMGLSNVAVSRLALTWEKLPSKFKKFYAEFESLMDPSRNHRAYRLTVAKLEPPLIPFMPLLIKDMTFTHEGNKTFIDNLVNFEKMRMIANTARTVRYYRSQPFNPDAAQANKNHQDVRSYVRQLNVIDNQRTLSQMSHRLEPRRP", "UniProt Q9Y253": "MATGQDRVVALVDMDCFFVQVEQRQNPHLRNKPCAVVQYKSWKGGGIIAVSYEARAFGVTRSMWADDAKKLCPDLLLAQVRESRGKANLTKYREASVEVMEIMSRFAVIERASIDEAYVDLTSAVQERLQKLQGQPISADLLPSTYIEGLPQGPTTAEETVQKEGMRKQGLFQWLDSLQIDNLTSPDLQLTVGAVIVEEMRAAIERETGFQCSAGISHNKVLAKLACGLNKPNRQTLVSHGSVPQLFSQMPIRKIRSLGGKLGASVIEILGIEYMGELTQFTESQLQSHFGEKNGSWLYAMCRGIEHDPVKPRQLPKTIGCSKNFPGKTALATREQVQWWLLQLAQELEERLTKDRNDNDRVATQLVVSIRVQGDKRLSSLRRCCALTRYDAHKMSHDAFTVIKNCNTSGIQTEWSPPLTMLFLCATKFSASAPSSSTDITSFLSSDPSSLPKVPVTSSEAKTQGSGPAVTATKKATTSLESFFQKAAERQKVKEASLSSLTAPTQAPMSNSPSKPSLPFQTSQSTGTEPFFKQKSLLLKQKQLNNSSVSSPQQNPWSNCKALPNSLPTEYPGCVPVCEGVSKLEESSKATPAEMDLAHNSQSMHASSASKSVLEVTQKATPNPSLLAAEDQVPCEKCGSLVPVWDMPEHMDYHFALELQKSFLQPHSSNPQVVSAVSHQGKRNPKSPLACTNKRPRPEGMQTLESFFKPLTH", "UniProt P27695, whole entry, looked up": "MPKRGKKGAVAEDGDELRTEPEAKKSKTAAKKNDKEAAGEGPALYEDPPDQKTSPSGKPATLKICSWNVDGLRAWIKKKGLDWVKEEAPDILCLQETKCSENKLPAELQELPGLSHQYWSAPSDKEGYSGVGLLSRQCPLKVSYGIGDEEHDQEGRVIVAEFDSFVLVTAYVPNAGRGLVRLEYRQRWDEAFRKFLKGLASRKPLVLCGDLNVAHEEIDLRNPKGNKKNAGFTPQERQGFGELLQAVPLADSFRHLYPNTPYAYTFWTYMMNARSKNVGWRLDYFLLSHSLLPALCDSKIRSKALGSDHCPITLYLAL", "UniProt P39748, whole entry, looked up": "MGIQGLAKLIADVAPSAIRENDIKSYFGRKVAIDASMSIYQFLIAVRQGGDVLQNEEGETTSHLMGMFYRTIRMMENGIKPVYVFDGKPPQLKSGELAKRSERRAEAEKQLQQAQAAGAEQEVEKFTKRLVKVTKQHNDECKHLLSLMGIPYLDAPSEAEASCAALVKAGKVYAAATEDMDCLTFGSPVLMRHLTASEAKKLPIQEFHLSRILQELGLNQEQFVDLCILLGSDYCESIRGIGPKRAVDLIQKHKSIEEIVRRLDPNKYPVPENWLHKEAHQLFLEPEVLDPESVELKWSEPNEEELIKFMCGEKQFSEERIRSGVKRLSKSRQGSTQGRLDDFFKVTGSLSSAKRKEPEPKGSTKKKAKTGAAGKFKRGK", "UniProt Q9UNA4": "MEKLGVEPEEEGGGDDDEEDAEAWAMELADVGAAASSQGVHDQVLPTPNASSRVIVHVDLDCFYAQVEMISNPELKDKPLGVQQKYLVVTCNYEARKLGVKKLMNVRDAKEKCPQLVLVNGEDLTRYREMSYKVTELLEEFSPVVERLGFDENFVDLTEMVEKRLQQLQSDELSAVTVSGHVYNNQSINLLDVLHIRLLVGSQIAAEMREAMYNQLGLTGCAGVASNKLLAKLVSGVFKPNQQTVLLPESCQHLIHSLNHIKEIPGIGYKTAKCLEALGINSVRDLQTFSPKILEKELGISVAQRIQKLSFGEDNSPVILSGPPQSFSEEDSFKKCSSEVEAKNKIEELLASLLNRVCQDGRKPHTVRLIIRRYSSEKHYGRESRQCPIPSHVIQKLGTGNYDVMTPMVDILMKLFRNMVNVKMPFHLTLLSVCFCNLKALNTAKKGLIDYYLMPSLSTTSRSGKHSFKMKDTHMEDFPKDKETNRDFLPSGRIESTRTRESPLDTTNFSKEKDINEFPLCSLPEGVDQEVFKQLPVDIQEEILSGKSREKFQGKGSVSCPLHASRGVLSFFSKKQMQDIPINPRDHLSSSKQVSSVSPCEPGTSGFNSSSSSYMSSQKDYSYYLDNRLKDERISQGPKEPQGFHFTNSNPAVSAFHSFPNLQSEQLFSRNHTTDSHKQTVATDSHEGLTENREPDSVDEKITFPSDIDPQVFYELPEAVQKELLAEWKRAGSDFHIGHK", "UniProt Q14191, whole entry, looked up": "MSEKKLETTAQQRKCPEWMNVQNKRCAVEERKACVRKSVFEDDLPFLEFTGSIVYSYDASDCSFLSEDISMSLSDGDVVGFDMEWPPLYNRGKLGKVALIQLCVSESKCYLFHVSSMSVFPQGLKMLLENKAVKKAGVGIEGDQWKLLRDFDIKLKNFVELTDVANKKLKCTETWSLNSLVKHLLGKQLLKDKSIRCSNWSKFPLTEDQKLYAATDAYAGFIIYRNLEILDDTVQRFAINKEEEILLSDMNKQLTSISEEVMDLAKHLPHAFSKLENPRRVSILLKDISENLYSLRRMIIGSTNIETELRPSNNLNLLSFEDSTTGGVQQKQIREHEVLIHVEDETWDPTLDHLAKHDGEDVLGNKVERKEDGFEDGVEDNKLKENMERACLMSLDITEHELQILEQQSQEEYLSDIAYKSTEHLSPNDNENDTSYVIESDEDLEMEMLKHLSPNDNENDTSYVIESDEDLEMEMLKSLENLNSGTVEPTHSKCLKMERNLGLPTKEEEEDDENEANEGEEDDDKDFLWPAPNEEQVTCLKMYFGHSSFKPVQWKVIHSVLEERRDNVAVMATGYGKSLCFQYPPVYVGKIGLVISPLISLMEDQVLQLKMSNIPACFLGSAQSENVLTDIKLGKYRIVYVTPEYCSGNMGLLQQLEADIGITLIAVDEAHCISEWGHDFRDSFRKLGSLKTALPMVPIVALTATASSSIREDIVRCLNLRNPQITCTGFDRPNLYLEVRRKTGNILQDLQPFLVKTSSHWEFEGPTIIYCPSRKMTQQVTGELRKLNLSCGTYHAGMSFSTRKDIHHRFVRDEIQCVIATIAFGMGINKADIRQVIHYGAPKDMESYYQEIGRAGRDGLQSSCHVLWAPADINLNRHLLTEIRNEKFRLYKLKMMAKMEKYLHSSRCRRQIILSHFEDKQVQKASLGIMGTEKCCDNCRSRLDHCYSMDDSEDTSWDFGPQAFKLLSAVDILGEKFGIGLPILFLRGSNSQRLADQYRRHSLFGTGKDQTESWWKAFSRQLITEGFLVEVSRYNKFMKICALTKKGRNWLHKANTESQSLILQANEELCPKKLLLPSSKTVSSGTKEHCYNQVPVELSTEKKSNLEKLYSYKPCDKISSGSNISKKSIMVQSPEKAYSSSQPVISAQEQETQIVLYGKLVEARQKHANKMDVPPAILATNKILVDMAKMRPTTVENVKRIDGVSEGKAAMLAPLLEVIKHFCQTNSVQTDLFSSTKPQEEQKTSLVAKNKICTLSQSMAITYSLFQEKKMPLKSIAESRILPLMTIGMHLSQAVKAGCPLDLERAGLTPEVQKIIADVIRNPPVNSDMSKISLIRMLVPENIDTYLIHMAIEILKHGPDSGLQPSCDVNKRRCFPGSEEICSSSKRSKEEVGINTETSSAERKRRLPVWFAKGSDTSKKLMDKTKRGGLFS", "UniProt P54132": "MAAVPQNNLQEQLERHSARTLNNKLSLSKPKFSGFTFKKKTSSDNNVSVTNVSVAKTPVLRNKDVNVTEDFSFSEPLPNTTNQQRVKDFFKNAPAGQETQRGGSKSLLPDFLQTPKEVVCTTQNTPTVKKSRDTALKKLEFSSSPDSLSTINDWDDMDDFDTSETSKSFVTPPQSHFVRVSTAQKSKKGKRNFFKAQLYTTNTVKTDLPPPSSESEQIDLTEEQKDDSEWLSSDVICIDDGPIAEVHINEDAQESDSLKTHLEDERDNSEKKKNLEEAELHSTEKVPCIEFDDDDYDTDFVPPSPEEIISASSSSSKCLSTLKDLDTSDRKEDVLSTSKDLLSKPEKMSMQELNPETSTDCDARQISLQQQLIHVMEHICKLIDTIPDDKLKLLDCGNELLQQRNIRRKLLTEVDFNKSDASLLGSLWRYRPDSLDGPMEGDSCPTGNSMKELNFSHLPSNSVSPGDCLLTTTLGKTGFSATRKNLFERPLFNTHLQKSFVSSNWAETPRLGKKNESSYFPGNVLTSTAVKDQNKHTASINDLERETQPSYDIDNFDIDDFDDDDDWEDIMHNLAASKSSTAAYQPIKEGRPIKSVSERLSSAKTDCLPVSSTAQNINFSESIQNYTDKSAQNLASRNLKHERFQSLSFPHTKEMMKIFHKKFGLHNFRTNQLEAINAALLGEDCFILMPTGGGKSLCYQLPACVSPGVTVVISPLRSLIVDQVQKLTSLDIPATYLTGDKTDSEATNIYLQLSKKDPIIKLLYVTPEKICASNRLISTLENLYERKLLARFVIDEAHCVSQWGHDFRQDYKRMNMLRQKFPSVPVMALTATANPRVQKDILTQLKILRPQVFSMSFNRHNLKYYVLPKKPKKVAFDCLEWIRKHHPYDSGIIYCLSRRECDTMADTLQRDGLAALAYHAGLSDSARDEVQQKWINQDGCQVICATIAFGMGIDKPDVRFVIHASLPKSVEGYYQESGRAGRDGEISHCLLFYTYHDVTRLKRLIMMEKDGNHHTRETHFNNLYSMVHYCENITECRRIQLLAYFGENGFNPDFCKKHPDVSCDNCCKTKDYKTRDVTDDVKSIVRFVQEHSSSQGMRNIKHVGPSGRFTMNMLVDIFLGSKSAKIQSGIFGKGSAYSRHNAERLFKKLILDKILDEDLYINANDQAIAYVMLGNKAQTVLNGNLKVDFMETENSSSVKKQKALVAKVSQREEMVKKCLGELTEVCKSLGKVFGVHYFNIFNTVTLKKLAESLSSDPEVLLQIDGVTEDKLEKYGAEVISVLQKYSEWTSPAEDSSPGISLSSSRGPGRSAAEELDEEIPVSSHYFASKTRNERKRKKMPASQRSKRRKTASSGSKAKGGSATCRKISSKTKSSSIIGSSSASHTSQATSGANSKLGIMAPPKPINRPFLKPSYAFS"}, "source": "PubChem BioAssay (NCATS)", "key": {"[1]": {"target": "Rap guanine nucleotide exchange factor 4 (Homo sapiens) (UniProt Q8WZA2)", "assay": "Confirmatory qHTS for antagonist of cAMP-regulated guanine nucleotide exchange factor 4 (EPAC2) (AID 1645885); note: nearly all actives have a fitted effect of over 25% in size; note: potency is the fitted concentration of half-maximal effect; for activity change, negative = inhibition: % is set by controls: 0 for no effect and ±100 for the full control effect", "conditions": "activity change, negative = inhibition: at 114 µM (top of the series) unless noted"}, "[2]": {"target": "DNA polymerase eta (Homo sapiens) (UniProt Q9Y253)", "assay": "qHTS for Inhibitors of Polymerase Eta: Confirmatory Assay for Cherry-picked Compounds (AID 720502); note: potency is the fitted concentration of half-maximal effect", "conditions": "Pol eta primer extension, TAMRA/BHQ fluorescence, 10 min", "method_in_brief": "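Readout: TAMRA dequenching, ex 525/em 598 nm, read at 0 and 10 min. Enzyme: 10 nM human Pol eta, preincubated with compound 15 min RT. Substrate: 50 nM final annealed primer/reporter/template duplex.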"}, "[3]": {"target": "Rap guanine nucleotide exchange factor 4 (Homo sapiens) (UniProt Q8WZA2)", "assay": "Confirmatory qHTS for agonist of cAMP-regulated guanine nucleotide exchange factor 4 (EPAC2) (AID 1645884);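 note: nucleotide exchange releases bodipy-GDP from Rap1 and this lowers its fluorescence; nearly all actives have a fitted effect of over 65% in size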; note: potency is the fitted concentration of half-maximal effect; for activation: % is set by controls: 0 for no effect and ±100 for the full control effect"}, "[4]": {"target": "DNA repair nuclease/redox regulator APEX1 (Homo sapiens) (UniProt P27695)", "assay": "Confirmation qHTS Assay for Inhibitors of the Human Apurinic/apyrimidinic Endonuclease 1 (APE1) (AID 2572); note: potency is the fitted concentration of half-maximal effect; nearly all actives have a fitted effect of over 30% in size", "method_in_brief": "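Fluorescence gain at 598 nm (Ex 525 nm) reports APE1 cleavage of a TAMRA/BHQ-2-labelled duplex carrying a tetrahydrofuran abasic site, 50 nM final. Activity taken as third-minus-first kinetic read after 15 min compound preincubation, room temperature.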"}, "[5]": {"target": "Ubiquitin carboxyl-terminal hydrolase 1 (Homo sapiens) (UniProt O94782)", "assay": "Inhibitors of USP1/UAF1: Pilot qHTS (AID 504865); note: potency is the fitted concentration of half-maximal effect; nearly all actives have a fitted effect of over 35% in size", "method_in_brief": "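USP1/UAF1 complex (1nM) preincubated with compound 15 min at room temperature, then Ub-Rho substrate (150nM final) added. Fluorescence read kinetically at 480/540 nm, 6 reads every 60 seconds. Buffer: 50mM HEPES pH 7.8, 0.5mM EDTA, 0.1 mg/ml BSA, 1mM TCEP, 0.01% Tween-20.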"}, "[6]": {"target": "Rap guanine nucleotide exchange factor 3 (Homo sapiens) (UniProt O95398)", "assay": "Confirmatory qHTS for antagonist of cAMP-regulated guanine nucleotide exchange factor 3 (EPAC1) (AID 1645880); note: potency is the fitted concentration of half-maximal effect; nearly all actives have a fitted effect of over 55% in size", "method_in_brief": "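Nucleotide exchange uses 100 nM EPAC1, 250 nM RAP1B-BODIPY-GDP and 50 uM GDP, with compounds in a concentration-titration series. After 5 min at room temperature, fluorescence (480 nm ex/540 nm em) is read every 5 min for 30 min. Data are normalized to control ATA and DMSO.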"}, "[7]": {"assay": "qHTS for Inhibitors of the vitamin D receptor (VDR): Hit Validation using a Texas Red Assay (AID 602201); note: potency is the fitted concentration of half-maximal effect", "method_in_brief": "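Fluorescence polarization (Ex 595/Em 615 nm) of Texas Red (7 nM) with 1.5 uM VDR-LBD and LG19078 (final concentrations). Compounds were incubated for 2 hours at room temperature.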"}, "[8]": {"assay": "qHTS for Inhibitors of the vitamin D receptor (VDR): Hit Validation using a Cytotoxicity Assay (AID 602204);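 note: plate controls were DMSO for no effect and high-concentration cycloheximide for full effect; nearly all actives have a fitted effect of over 75% in size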", "method_in_brief": "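Cytotoxicity counterscreen measuring cellular ATP by CellTiter-Glo luminescence. Cells (20,000/well) plated 4 hours before compound addition, then exposed for 18 hours. Cycloheximide at high concentration as positive control, DMSO as negative.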"}, "[9]": {"target": "Flap endonuclease 1 (Homo sapiens) (UniProt P39748)", "assay": "qHTS Assay for the Inhibitors of FEN1: Confirmatory Assay for Cherry-picked Compounds (AID 720498); note: potency is the fitted concentration of half-maximal effect; nearly all actives have a fitted effect of over 60% in size", "conditions": "FEN1 flap cleavage, TAMRA/BHQ2 fluorogenic DNA substrate", "method_in_brief": "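FEN1 at 10 nM was preincubated with compound for 15 min at room temperature, then 50 nM (final) double-flap DNA substrate was added. TAMRA fluorescence released from the BHQ-2-quenched flap was read at 0 and 15 min (ex 525/em 598 nm).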"}, "[10]": {"target": "DNA polymerase iota (Homo sapiens) (UniProt Q9UNA4)", "assay": "qHTS for Inhibitors of Polymerase Iota: Confirmatory Assay for Cherry-picked Compounds (AID 720496); note: potency is the fitted concentration of half-maximal effect", "conditions": "Pol iota primer extension, TAMRA/BHQ fluorescence", "method_in_brief": "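Buffer-only wells, without enzyme, serve as negative control. Test wells hold 10 nM Pol iota preincubated 15 min with compound before 50 nM final fluorogenic DNA substrate is added; signal is read at 0 and 10 min.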"}, "[11]": {"target": "Rap guanine nucleotide exchange factor 3 (Homo sapiens) (UniProt O95398)", "assay": "Confirmatory qHTS for agonist of cAMP-regulated guanine nucleotide exchange factor 3 (EPAC1) (AID 1645881); note: potency is the fitted concentration of half-maximal effect; nearly all actives have a fitted effect of over 75% in size", "conditions": "EPAC1 Rap1B BODIPY-GDP exchange fluorescence; activation: at 154 µM (top of the series), 100% = cAMP control response"}, "[12]": {"target": "Rap guanine nucleotide exchange factor 3 (Homo sapiens) (UniProt O95398)", "assay": "Counterscreen qHTS for agonist of cAMP-regulated guanine nucleotide exchange factor 3 (EPAC1) (AID 1645889); note: nearly all actives have a fitted effect of over 40% in size; note: potency is the fitted concentration of half-maximal effect; for activation: % of control where 0% means no effect", "conditions": "EPAC1 Rap1B-BODIPY-GDP exchange, fluorescence; activation: at 154 µM (top of the series) unless noted", "method_in_brief": "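Measured: fluorescence of BODIPY-GDP bound to Rap1B, which falls as exchange proceeds. Conditions include 50 uM competing GDP, 5 and 30 min reads, and a later cAMP challenge for antagonist detection.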"}, "[13]": {"target": "Bifunctional 3'-5' exonuclease/ATP-dependent helicase WRN (Homo sapiens) (UniProt Q14191)", "assay": "qHTS for Inhibitors of WRN Helicase: Confirmatory Assay for Cherry-picked Compounds. (AID 720497); note: potency is the fitted concentration of half-maximal effect; nearly all actives have a fitted effect of over 65% in size", "conditions": "WRN helicase DNA unwinding, fluorescence kinetic", "method_in_brief": "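WRN at 20 nM final was preincubated with compound for 15 min at room temperature; the reaction was started with 100 nM forked duplex oligonucleotide and 2 mM ATP (final). Red fluorescence (ex 525/em 598 nm) was read kinetically, with inhibition normalized to enzyme-only and buffer-only wells.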"}, "[14]": {"target": "RecQ-like DNA helicase BLM (Homo sapiens) (UniProt P54132)", "assay": "qHTS for Inhibitors of WRN Helicase: BLM Helicase Counterscreen for WRN Inhibitors (AID 720503); note: potency is the fitted concentration of half-maximal effect; nearly all actives have a fitted effect of over 60% in size", "conditions": "Recombinant BLM helicase DNA unwinding, red fluorescence", "method_in_brief": "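1 nM BLM, Tris pH 8.0/NaCl/MgCl2/DTT/Tween-20; cpd preinc 15 min RT; start w/ 100 nM DNA + 2 mM ATP final; fluorescence (ex 525/em 598) two reads 15 min apart; normalized to enzyme-free and DMSO controls.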"}}, "note": "Inconclusive results, whose numbers are uncertain, are shown with a selection of clear calls. For part of these data: Potencies beside an inconclusive call are fits to weak or partial responses and may not hold up. Calls of active or inactive are those of the source. Calls come from the whole dose curve; as a rule, active = well fitted curve in the direction sought with a large enough effect; inconclusive = small, poorly fitted or top-dose-only effect, or another doubt; inactive = no such curve, though single readings can be large; an effect the other way counts as inactive or inconclusive."}
{"smiles": "CC(C)CCn1c(=O)c(C(=O)Nc2ccccc2S(N)(=O)=O)c(O)c2ccccc21", "values": [{"measurement": "Potency", "setting": "[1]", "value": "inconclusive: 47.8 µM [inhibitor, partial curve, poor fit]"}]}
{"smiles": "CN1C(=O)/C(=C/c2cccn2-c2ccc3ccccc3c2)C(=O)NC1=S", "values": [{"measurement": "Potency", "setting": "[2]", "value": "inconclusive: 84.9 µM [inhibitor, single point]"}, {"measurement": "Potency", "setting": "[3]", "value": "inactive"}]}
{"smiles": "O=C1C=CC(=O)c2c(O)cccc21", "values": [{"measurement": "Potency", "setting": "[4]", "value": "inconclusive: 10 µM [inhibitor, partial curve]"}, {"measurement": "Potency", "setting": "[5]", "value": "active: 8.91 µM"}, {"measurement": "Potency", "setting": "[6]", "value": "inconclusive: 25 µM [inhibitor, partial curve]"}]}
{"smiles": "COc1ccc(N2C(=O)/C(=C/c3ccco3)C(=O)NC2=S)cc1", "values": [{"measurement": "Potency", "setting": "[7]", "value": "inconclusive: 4.47 µM [inhibitor, single point]"}, {"measurement": "Potency", "setting": "[8]", "value": "inactive"}, {"measurement": "Potency", "setting": "[9]", "value": "active: 21.3 µM"}, {"measurement": "Potency", "setting": "[6]", "value": "active: 6.31 µM"}]}
{"smiles": "O=C1NC(=O)N(Cc2ccccc2)C(=O)/C1=C\\c1ccco1", "values": [{"measurement": "Potency", "setting": "[10]", "value": "inconclusive: 67 µM [inhibitor, partial curve]"}, {"measurement": "Potency", "setting": "[6]", "value": "inconclusive: 44.7 µM [inhibitor, partial curve]"}]}
{"smiles": "COC(=O)C1C2c3ccccc3C(c3ccccc32)C1(C)C(=O)OC", "note": "(configuration not stated)", "values": [{"measurement": "Potency", "setting": "[1]", "value": "inconclusive: 6.75 µM [inhibitor, single point]"}]}
{"smiles": "Cn1cc(/C=C2\\C(=O)NC(=O)N(c3ccccc3)C2=O)c2ccccc21", "values": [{"measurement": "Potency", "setting": "[11]", "value": "inconclusive: 126 µM [activator, partial curve, poor fit]"}, {"measurement": "Potency", "setting": "[3]", "value": "active: 112 µM"}, {"measurement": "Potency", "setting": "[1]", "value": "active: 95.3 µM"}, {"measurement": "Potency", "setting": "[12]", "value": "inactive"}]}
{"smiles": "CCCSc1nc2ccccc2c(=O)n1-c1ccccc1OC", "values": [{"measurement": "activity change, negative = inhibition", "setting": "[1]", "value": "inactive: 34.1% [at 12.7 µM]"}]}
{"smiles": "CC(C)=CCCC1(C)C=Cc2c(O)c3c(c(CC=C(C)C)c2O1)OC12C(=CC4CC1C(C)(C)OC2(C/C=C(/C)C(=O)O)C4=O)C3=O", "note": "(configuration not stated)", "values": [{"measurement": "Potency", "setting": "[5]", "value": "active: 20 µM"}, {"measurement": "Potency", "setting": "[1]", "value": "inconclusive: 44.1 µM [inhibitor, partial curve, poor fit]"}]}
{"smiles": "Cc1c2cnn(CC(=O)N3CCC4(CC3)OCCO4)c(=O)c2c(C)n1Cc1ccc(F)cc1", "values": [{"measurement": "Potency", "setting": "[12]", "value": "inconclusive: 0.1 µM [activator, full curve, poor fit]"}]}
{"smiles": "CN(C)CC(C(=O)Cc1ccccc1)c1ccccc1", "note": "(configuration not stated)", "values": [{"measurement": "Potency", "setting": "[13]", "value": "active: 0.304 µM"}, {"measurement": "Potency", "setting": "[14]", "value": "inconclusive: 17.1 µM [inhibitor, partial curve]"}, {"measurement": "Potency", "setting": "[12]", "value": "inconclusive: 0.0398 µM [activator, full curve, poor fit]"}]}
{"smiles": "CCCCNC(=O)c1c(N)n(CCCOC)c2nc3ccccc3nc12", "values": [{"measurement": "Potency", "setting": "[1]", "value": "inconclusive: 84.9 µM [inhibitor, single point]"}]}
{"smiles": "CC1=C(O)C(=O)C=C2C1=CC=C1C2(C)CCC2(C)C3CC(C)(C(=O)O)CCC3(C)CCC12C", "note": "(configuration not stated)", "values": [{"measurement": "Potency", "setting": "[13]", "value": "inconclusive: 24.1 µM [inhibitor, partial curve]"}, {"measurement": "Potency", "setting": "[1]", "value": "active: 0.953 µM"}]}
